# In publication PMC6563059:
# Protein sequences, listed by entry. Tags and fused reporters are not part of them.
# UniProt P53762: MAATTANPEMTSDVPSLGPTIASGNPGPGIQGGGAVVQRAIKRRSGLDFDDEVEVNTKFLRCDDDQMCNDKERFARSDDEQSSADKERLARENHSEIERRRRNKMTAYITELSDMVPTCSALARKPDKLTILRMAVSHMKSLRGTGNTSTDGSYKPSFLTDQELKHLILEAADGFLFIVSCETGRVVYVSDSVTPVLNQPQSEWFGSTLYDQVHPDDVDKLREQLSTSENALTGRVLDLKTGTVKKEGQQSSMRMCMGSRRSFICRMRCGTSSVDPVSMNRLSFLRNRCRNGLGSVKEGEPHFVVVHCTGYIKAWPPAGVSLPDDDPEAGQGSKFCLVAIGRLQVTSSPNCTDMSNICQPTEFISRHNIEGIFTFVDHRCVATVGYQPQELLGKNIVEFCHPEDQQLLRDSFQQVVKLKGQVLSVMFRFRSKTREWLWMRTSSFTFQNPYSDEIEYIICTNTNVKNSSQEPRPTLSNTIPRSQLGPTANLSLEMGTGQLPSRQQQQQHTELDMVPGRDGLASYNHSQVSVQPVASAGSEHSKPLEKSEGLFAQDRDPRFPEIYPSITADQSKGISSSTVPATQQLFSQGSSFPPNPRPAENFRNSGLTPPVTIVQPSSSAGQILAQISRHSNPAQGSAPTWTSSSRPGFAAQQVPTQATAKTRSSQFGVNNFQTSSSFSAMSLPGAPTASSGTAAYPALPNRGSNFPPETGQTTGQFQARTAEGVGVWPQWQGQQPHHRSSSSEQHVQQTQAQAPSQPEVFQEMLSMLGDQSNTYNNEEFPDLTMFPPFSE
# No constants are given. Whether binding was seen depends on the method and setting. Binding seen in cells or lysates may run through a third protein. Some binding calls cover weakened binding; strength is not graded here.
# T1: RelB (mouse (endogenous in MEF)) (UniProt Q04863)
# T1 sequence: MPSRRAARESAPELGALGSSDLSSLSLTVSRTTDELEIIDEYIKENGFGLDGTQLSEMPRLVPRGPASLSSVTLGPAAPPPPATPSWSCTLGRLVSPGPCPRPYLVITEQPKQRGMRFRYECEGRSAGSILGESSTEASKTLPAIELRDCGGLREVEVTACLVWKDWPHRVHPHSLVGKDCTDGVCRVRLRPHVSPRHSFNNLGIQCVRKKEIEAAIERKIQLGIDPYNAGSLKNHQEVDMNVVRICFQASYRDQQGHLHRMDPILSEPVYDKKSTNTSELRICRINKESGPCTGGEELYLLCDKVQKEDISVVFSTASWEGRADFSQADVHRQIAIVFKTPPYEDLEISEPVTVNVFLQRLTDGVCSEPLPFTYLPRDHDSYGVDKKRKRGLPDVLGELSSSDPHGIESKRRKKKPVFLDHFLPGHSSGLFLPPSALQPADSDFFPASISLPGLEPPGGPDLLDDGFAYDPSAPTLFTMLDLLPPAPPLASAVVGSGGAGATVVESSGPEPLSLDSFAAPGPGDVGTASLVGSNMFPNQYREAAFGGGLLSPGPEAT
# T2: aryl hydrocarbon receptor repressor (mouse (endogenous in MEF)) (UniProt Q3U1U7)
# T2 sequence: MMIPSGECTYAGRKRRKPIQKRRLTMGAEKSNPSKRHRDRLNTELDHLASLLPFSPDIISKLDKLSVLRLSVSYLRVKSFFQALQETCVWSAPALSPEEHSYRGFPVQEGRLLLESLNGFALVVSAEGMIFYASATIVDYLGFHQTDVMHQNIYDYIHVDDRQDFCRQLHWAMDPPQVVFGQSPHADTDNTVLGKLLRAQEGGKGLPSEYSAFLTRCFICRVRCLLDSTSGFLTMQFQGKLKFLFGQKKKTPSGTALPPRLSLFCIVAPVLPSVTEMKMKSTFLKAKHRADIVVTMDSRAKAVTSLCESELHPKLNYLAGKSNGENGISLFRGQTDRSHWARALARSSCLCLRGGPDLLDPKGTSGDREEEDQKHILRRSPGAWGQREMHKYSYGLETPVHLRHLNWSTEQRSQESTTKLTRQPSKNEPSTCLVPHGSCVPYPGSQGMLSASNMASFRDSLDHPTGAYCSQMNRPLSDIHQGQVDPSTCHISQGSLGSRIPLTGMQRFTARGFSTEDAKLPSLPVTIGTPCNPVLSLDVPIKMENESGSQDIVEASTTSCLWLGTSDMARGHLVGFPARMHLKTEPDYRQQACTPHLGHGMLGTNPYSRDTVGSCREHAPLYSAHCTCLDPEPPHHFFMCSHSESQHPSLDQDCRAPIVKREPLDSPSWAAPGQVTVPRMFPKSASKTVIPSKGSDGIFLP
# Experiments:
# [1] = molecular target: T1, RelB (mouse (endogenous in MEF)); assay: co-IP; IP with RelB or AhRR antibody from MEF (wt and AhRR Tg) treated with 1 nM TCDD or DMSO for 90 min; Western blot detection; rabbit IgG as negative control
# [2] = molecular target: T2, aryl hydrocarbon receptor repressor (mouse (endogenous in MEF)); assay: as above
binding [1],binding [2],Molecule
binds,binds,AhR nuclear translocator (from UniProt P53762 1-791)
–,binds,"RelB (protein, UniProt Q04863 1-558) MPSRRAARESAPELGALGSSDLSSLSLTVSRTTDELEIIDEYIKENGFGLDGTQLSEMPRLVPRGPASLSSVTLGPAAPPPPATPSWSCTLGRLVSPGPCPRPYLVITEQPKQRGMRFRYECEGRSAGSILGESSTEASKTLPAIELRDCGGLREVEVTACLVWKDWPHRVHPHSLVGKDCTDGVCRVRLRPHVSPRHSFNNLGIQCVRKKEIEAAIERKIQLGIDPYNAGSLKNHQEVDMNVVRICFQASYRDQQGHLHRMDPILSEPVYDKKSTNTSELRICRINKESGPCTGGEELYLLCDKVQKEDISVVFSTASWEGRADFSQADVHRQIAIVFKTPPYEDLEISEPVTVNVFLQRLTDGVCSEPLPFTYLPRDHDSYGVDKKRKRGLPDVLGELSSSDPHGIESKRRKKKPVFLDHFLPGHSSGLFLPPSALQPADSDFFPASISLPGLEPPGGPDLLDDGFAYDPSAPTLFTMLDLLPPAPPLASAVVGSGGAGATVVESSGPEPLSLDSFAAPGPGDVGTASLVGSNMFPNQYREAAFGGGLLSPGPEAT"
